# For at least one compound, name, drawing or mass did not settle the structure.
# Columns and labels:
# poliovirus [1] = type: cell-based, Poliovirus Mahoney type 1 strain
# [2] = system: poliovirus replicon, PLuc; type: cell-based
# capsid precursor P1 = type: cell-based, poliovirus
# coxsackievirus = type: cell-based, coxsackievirus B3 (CVB3); details: HeLa S3 cells
# rhinovirus = type: cell-based, human rhinovirus 14 (HRV14); details: HeLa S3 cells
# [3] = system: Hsp90 and its co-chaperone p23 association with P1; type: cell-based
# rhinovirus P1 = type: cell-based; details: HeLa S3 cells
# poliovirus [4] = system: poliovirus; parameters: species or system cPVR transgenic mice; details: mouse, in vivo
smiles,measurement,setting,value
"COC1=C2C[C@@H](C)C[C@H](OC)[C@H](O)[C@@H](C)/C=C(\C)[C@H](OC(N)=O)[C@@H](OC)/C=C\C=C(/C)C(=O)NC(=CC1=O)C2=O [GA, Geldanamycin]",virus production when added two hours post-infection,poliovirus [1],effectively inhibited virus production
same,luciferase production in PLuc transfected cells,[2],did not affect luciferase production
same,"P1-derived capsid proteins, steady-state 35S-labeling",capsid precursor P1,significant reduction in P1-derived capsid proteins
same,"appearance of P1-derived mature capsid proteins, pulse-chase",capsid precursor P1,drastically reduced
same,processing of P2 or P3,capsid precursor P1,did not affect processing of P2 or P3
same,effect on coxsackievirus replication,coxsackievirus,inhibited the replication
same,effect on rhinovirus replication,rhinovirus,inhibited the replication
same,Hsp90-P1 interaction,[3],did not disrupt the Hsp90-P1 interaction
same,association of P1 with p23,[3],abrogated the association of P1 with p23
same,P1 processing in rhinovirus-infected cells,rhinovirus P1,impaired P1 processing
same,viral load in the central nervous system (CNS),poliovirus [4],significantly reduced the viral load

# Source: US20100093824A1 (priority 2006, published 2010)
